Read-outs that look alike come from different tables or passages of the source.
Assays:
[1] = tested on: HCC-2998
[2] = tested on: HCT-116
[3] = tested on: HS 578T
[4] = tested on: EKVX
[5] = tested on: SN12C
[6] = tested on: TK-10
[7] = tested on: COLO 205
[8] = tested on: NCI-H23
[9] = tested on: KM12
[10] = tested on: T-47D
[11] = tested on: OVCAR-5
[12] = tested on: HL-60(TB)
[13] = tested on: SF-268
[14] = tested on: NCI-H322M
[15] = tested on: BT-549
[16] = tested on: OVCAR-8
[17] = tested on: DU-145

CNC(=O)NC[C@H]1O[C@@H](n2cnc3c(NC(=O)Nc4ccccc4)ncnc32)[C@H](O[Si](C)(C)C(C)(C)C)[C@@H]1CC(=O)N(C)OC [Compound 13, 2′-O-(tert-Butyldimethylsilyl)-3′,5′-dideoxy-3′-[(N-methoxy-N-methylcarboxamido)methyl]-5′-[(N-methylcarbamoyl)amino]-N^6-(N-phenylcarbamoyl)adenosine]
Mean Optical Densities ([1]; Log10 Concentration −4.0): 1.447
Mean Optical Densities ([1]; Log10 Concentration −5.0): 2.005
Mean Optical Densities ([1]; Log10 Concentration −6.0): 2.593
Mean Optical Densities ([1]; Log10 Concentration −7.0): 2.536
Mean Optical Densities ([1]; Log10 Concentration −8.0): 2.630
Mean Optical Densities ([2]; Log10 Concentration −4.0): 0.230
Mean Optical Densities ([2]; Log10 Concentration −5.0): 0.437
Mean Optical Densities ([2]; Log10 Concentration −6.0): 1.057
Mean Optical Densities ([2]; Log10 Concentration −7.0): 1.070
Mean Optical Densities ([2]; Log10 Concentration −8.0): 1.098
Mean Optical Densities ([3]; Log10 Concentration −4.0): 0.567
Mean Optical Densities ([3]; Log10 Concentration −5.0): 0.703
Mean Optical Densities ([3]; Log10 Concentration −6.0): 0.912
Mean Optical Densities ([3]; Log10 Concentration −7.0): 0.989
Mean Optical Densities ([3]; Log10 Concentration −8.0): 0.992
Mean Optical Densities ([4]; Log10 Concentration −4.0): 1.627
Mean Optical Densities ([4]; Log10 Concentration −5.0): 1.993
Mean Optical Densities ([4]; Log10 Concentration −6.0): 2.536
Mean Optical Densities ([4]; Log10 Concentration −7.0): 2.536
Mean Optical Densities ([4]; Log10 Concentration −8.0): 2.516
Mean Optical Densities ([5]; Log10 Concentration −4.0): 1.150
Mean Optical Densities ([5]; Log10 Concentration −5.0): 1.380
Mean Optical Densities ([5]; Log10 Concentration −6.0): 1.795
Mean Optical Densities ([5]; Log10 Concentration −7.0): 1.902
Mean Optical Densities ([5]; Log10 Concentration −8.0): 1.929
Mean Optical Densities ([6]; Log10 Concentration −4.0): 0.667
Mean Optical Densities ([6]; Log10 Concentration −5.0): 0.968
Mean Optical Densities ([6]; Log10 Concentration −6.0): 1.209
Mean Optical Densities ([6]; Log10 Concentration −7.0): 1.223
Mean Optical Densities ([6]; Log10 Concentration −8.0): 1.177
Mean Optical Densities ([7]; Log10 Concentration −4.0): 0.251
Mean Optical Densities ([7]; Log10 Concentration −5.0): 0.685
Mean Optical Densities ([7]; Log10 Concentration −6.0): 0.968
Mean Optical Densities ([7]; Log10 Concentration −7.0): 0.992
Mean Optical Densities ([7]; Log10 Concentration −8.0): 1.027
Mean Optical Densities ([8]; Log10 Concentration −4.0): 1.077
Mean Optical Densities ([8]; Log10 Concentration −5.0): 1.382
Mean Optical Densities ([8]; Log10 Concentration −6.0): 1.693
Mean Optical Densities ([8]; Log10 Concentration −7.0): 1.736
Mean Optical Densities ([8]; Log10 Concentration −8.0): 1.771
Mean Optical Densities ([9]; Log10 Concentration −4.0): 0.513
Mean Optical Densities ([9]; Log10 Concentration −5.0): 0.743
Mean Optical Densities ([9]; Log10 Concentration −6.0): 1.063
Mean Optical Densities ([9]; Log10 Concentration −7.0): 1.079
Mean Optical Densities ([9]; Log10 Concentration −8.0): 1.023
Mean Optical Densities ([10]; Log10 Concentration −4.0): 0.579
Mean Optical Densities ([10]; Log10 Concentration −5.0): 0.805
Mean Optical Densities ([10]; Log10 Concentration −6.0): 0.972
Mean Optical Densities ([10]; Log10 Concentration −7.0): 1.002
Mean Optical Densities ([10]; Log10 Concentration −8.0): 1.012
Mean Optical Densities ([11]; Log10 Concentration −4.0): 0.688
Mean Optical Densities ([11]; Log10 Concentration −5.0): 0.921
Mean Optical Densities ([11]; Log10 Concentration −6.0): 1.053
Mean Optical Densities ([11]; Log10 Concentration −7.0): 1.092
Mean Optical Densities ([11]; Log10 Concentration −8.0): 1.098
Mean Optical Densities ([12]; Log10 Concentration −4.0): 0.292
Mean Optical Densities ([12]; Log10 Concentration −5.0): 0.365
Mean Optical Densities ([12]; Log10 Concentration −6.0): 1.482
Mean Optical Densities ([12]; Log10 Concentration −7.0): 1.503
Mean Optical Densities ([12]; Log10 Concentration −8.0): 1.580
Mean Optical Densities ([13]; Log10 Concentration −4.0): 0.726
Mean Optical Densities ([13]; Log10 Concentration −5.0): 0.952
Mean Optical Densities ([13]; Log10 Concentration −6.0): 1.339
Mean Optical Densities ([13]; Log10 Concentration −7.0): 1.454
Mean Optical Densities ([13]; Log10 Concentration −8.0): 1.394
Mean Optical Densities ([14]; Log10 Concentration −4.0): 1.571
Mean Optical Densities ([14]; Log10 Concentration −5.0): 1.789
Mean Optical Densities ([14]; Log10 Concentration −6.0): 1.933
Mean Optical Densities ([14]; Log10 Concentration −7.0): 1.886
Mean Optical Densities ([14]; Log10 Concentration −8.0): 1.869
Mean Optical Densities ([15]; Log10 Concentration −4.0): 1.197
Mean Optical Densities ([15]; Log10 Concentration −5.0): 1.671
Mean Optical Densities ([15]; Log10 Concentration −6.0): 1.946
Mean Optical Densities ([15]; Log10 Concentration −7.0): 1.965
Mean Optical Densities ([15]; Log10 Concentration −8.0): 1.940
Mean Optical Densities ([16]; Log10 Concentration −4.0): 0.575
Mean Optical Densities ([16]; Log10 Concentration −5.0): 0.820
Mean Optical Densities ([16]; Log10 Concentration −6.0): 1.338
Mean Optical Densities ([16]; Log10 Concentration −7.0): 1.371
Mean Optical Densities ([16]; Log10 Concentration −8.0): 1.382
Mean Optical Densities ([17]; Log10 Concentration −4.0): 0.357
Mean Optical Densities ([17]; Log10 Concentration −5.0): 0.578
Mean Optical Densities ([17]; Log10 Concentration −6.0): 0.802
Mean Optical Densities ([17]; Log10 Concentration −7.0): 0.842
Mean Optical Densities ([17]; Log10 Concentration −8.0): 0.821

From patent publication US20100152434A1, “Protein Kinase-binding Nucleosides and Associated Methods” (priority 2007, published 2010)
